{"source": "paper PMC12254245", "binders": {"B1": {"name": "Bradyzoite Serological Marker (BSM), recombinant, C-terminal histidine tag (protein, UniProt S8F6A1 1-763)", "chain": "MAAVVTGSDMLLGFELGSQMSVVASGTRDGADRAVNKGGLDKMVARRFIPSSIAYAGKVRLFGEEAEARVNAEPNDTIMELPLWIPVHTVEQAKALETRLAFCPSVQVGLLSDGELLFHVDFNNQQLKIPLPVAVGAFVGRLHTAGLHLSGACSTEQNMSGIDLIRHMHQHRHLPHIGVLVVPSSITEKDLMILTAAQGVEKGPSIMLSRISALINWWCCEKLPAEYESLIRLQSATGASVKEKGVVHVALVDVGFSEISVAVIELRTASTEQDPLVVRQPQKQVSVKVLGSATAGDIGVLDAVNELAKHLRHHIKERFHEEIRTKTARYWRMSKACMKAIRALCDVNQAAIDLKFILKNSDVRYDITRKHFDKLCAPLQAKLRAFLEETFSKAGVAGTNVVAADVLNSLARSAWIHSTIAEAVHCEVKAGKAAKVRWVEDGGAGAALGAVYWAADKKYVDNLVDRNPPYRTDKLLWMTAMETDIQKVEQGELERRYLLAHFESYAFEIQQAAMTVKEGLVRNAEQLKKEIKDAETALGALHQAPLEEVKHAYENFRSYLMNSEPRLFEAIENERATRIGQAKGIDPRRTMDIVVSQLGQESNAKLPNAVLLKRAKRDTEEASQLLTDGQTDLAVYLANQSLGYLSNMDAKTASDADKTAAIELQLHNYLQLAKAQTTEAVEDRAIDYRSTLLTQALDNCNKALAIDSKNADALFQRSAAYMSMNDFSRAKADVDAGLAIVPGSETGKALSAEITERQHSHTA"}}, "target": "Bradyzoite Serological Marker (BSM), recombinant, C-terminal histidine tag (Toxoplasma gondii) (UniProt S8F6A1)", "test": "SEC-MALS; S200 Increase 10/300 GL column; 50 uL injected of protein at a minimum of 4 mg/mL; flow 0.5 mL/min; both purified", "note": "These are yes or no findings as the source states them, for the method shown. Sequences can lack the tags named with a protein."}
{"binder": "B1", "values": [{"measurement": "binding", "result": "no binding (tested: injected at a minimum of 4 mg.mL^-1)"}]}
